Data from patent US10617749B1, “Composition of matter and methods for alteration of dendritic cell metabolism to augment cancer vaccine efficacy” (Duke University, priority 2016, dated 2020).
No constants are given. Whether binding was seen depends on the method and setting. Binding seen in cells or lysates may run through a third protein. Some binding calls cover weakened binding; strength is not graded here.

By UniProt entry, the sequences of proteins in these tests, tags left out. Residues count along the entry.
UniProt Q02248, residues 2-781: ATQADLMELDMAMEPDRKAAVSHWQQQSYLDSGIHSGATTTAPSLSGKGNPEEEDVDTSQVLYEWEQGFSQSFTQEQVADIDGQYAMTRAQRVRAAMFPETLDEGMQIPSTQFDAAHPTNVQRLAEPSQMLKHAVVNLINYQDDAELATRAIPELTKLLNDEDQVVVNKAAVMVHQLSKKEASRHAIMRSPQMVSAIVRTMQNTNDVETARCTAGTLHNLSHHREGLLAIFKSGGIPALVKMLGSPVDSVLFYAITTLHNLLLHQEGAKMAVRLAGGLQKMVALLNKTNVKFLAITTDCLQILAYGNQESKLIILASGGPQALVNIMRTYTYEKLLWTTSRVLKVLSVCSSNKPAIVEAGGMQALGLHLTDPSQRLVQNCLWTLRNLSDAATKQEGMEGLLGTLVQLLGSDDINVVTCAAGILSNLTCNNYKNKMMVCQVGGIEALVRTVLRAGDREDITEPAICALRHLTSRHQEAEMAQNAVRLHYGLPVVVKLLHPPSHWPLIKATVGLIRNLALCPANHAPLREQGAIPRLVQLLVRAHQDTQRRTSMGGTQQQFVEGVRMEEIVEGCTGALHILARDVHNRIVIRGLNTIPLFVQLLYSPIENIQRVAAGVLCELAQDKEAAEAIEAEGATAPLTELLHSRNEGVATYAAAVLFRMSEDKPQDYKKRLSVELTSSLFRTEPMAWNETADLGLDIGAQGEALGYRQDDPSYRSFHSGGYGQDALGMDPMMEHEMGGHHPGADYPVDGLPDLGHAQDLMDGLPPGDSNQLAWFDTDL
UniProt P37238: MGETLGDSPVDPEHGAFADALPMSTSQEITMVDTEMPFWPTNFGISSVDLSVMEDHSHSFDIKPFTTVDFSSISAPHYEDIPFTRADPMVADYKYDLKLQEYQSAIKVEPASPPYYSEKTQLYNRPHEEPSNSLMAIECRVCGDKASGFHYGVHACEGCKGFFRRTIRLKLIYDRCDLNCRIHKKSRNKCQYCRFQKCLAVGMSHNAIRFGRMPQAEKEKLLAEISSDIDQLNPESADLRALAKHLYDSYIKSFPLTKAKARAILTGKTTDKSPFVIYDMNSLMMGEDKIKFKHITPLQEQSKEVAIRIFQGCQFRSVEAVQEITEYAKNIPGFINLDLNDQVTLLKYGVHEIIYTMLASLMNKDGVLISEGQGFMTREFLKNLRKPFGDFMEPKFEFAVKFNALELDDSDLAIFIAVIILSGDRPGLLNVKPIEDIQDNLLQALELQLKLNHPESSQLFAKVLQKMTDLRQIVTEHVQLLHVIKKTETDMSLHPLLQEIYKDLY

What was measured:
[1] = molecular target: β-catenin (murine (BMDCs)) (UniProt Q02248); test: endogenous co-immunoprecipitation in primary DCs (β-catenin IP, PPARγ Western blot)
[2] = molecular target: β-catenin (murine (BMDCs)) (UniProt Q02248); test: endogenous co-immunoprecipitation in primary DCs

For “PPAR-γ (peroxisome proliferator-activated receptor gamma) (from UniProt P37238 1-505)”, the binding [1] was “binds” and the binding [2] was “binds”.
